In publication PMC5327418:
These are yes or no findings as the source states them, for the method shown. Binding seen in cells or lysates may run through a third protein. Here binding means that the protein was enriched with, or labelled near, the bait; the list need not be complete. A no says only that the protein was not detected with the bait.

By UniProt entry, the sequences of proteins in these tests, tags left out.
UniProt P32569: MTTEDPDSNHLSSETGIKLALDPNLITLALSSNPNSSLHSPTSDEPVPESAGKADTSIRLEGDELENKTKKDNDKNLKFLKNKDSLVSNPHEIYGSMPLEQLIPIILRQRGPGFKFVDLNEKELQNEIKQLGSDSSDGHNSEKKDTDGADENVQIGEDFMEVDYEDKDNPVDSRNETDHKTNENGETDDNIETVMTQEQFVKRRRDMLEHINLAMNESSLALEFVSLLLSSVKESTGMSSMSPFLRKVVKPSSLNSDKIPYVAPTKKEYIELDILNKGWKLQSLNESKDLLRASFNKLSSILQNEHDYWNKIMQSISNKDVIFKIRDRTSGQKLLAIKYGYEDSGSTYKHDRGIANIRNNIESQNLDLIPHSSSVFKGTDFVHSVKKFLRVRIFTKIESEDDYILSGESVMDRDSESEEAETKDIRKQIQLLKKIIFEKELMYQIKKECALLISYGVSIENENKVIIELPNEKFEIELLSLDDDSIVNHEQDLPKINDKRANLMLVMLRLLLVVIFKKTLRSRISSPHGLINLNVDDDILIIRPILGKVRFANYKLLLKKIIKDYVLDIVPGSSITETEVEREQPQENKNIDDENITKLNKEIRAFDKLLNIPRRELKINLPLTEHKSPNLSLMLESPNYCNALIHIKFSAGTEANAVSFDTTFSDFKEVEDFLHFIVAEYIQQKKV
UniProt P25632: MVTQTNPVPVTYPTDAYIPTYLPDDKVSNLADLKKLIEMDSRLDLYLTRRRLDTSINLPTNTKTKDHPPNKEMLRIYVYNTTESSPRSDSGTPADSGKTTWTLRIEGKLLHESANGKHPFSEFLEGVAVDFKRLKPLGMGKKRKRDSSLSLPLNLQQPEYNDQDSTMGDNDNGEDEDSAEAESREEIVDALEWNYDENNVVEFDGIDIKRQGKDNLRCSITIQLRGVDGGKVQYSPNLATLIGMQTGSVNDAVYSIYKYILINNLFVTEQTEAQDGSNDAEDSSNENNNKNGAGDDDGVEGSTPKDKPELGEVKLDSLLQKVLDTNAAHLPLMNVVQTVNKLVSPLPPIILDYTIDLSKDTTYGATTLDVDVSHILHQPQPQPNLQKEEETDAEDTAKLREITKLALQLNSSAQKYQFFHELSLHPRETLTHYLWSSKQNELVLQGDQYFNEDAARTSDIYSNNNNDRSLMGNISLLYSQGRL
UniProt P35177: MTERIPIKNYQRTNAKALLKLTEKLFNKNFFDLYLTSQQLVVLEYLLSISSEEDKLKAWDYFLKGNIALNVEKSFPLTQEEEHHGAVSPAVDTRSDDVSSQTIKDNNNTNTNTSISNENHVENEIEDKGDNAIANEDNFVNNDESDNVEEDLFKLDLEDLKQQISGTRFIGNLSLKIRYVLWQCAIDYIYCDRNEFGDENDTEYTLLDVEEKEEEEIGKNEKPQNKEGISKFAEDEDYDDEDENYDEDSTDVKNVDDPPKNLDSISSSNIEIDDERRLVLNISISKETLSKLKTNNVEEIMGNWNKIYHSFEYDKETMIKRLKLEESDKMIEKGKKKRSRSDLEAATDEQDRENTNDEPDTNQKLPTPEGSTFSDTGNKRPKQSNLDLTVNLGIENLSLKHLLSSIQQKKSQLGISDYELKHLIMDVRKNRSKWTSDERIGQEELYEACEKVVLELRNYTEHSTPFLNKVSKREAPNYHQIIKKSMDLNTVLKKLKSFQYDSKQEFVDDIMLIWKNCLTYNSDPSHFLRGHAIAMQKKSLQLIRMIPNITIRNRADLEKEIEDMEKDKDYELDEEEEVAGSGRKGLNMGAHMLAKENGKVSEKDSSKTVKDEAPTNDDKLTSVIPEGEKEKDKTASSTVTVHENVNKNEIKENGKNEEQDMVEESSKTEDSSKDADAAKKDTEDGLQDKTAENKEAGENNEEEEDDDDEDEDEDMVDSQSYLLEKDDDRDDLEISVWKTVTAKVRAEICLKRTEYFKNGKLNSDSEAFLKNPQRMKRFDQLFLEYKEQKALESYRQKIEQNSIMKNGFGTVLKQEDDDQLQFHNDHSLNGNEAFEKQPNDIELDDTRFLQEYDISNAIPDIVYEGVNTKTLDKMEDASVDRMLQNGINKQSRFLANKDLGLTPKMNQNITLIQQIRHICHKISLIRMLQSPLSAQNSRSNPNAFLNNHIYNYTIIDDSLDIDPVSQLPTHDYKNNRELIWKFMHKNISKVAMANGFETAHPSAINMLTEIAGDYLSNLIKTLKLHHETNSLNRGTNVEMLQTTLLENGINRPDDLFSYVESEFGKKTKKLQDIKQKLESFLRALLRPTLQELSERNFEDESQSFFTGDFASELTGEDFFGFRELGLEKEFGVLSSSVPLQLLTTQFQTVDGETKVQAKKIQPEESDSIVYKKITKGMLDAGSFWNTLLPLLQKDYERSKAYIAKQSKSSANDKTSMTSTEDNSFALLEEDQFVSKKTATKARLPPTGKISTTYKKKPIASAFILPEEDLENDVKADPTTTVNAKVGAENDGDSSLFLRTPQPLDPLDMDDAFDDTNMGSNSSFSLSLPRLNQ
UniProt P22147: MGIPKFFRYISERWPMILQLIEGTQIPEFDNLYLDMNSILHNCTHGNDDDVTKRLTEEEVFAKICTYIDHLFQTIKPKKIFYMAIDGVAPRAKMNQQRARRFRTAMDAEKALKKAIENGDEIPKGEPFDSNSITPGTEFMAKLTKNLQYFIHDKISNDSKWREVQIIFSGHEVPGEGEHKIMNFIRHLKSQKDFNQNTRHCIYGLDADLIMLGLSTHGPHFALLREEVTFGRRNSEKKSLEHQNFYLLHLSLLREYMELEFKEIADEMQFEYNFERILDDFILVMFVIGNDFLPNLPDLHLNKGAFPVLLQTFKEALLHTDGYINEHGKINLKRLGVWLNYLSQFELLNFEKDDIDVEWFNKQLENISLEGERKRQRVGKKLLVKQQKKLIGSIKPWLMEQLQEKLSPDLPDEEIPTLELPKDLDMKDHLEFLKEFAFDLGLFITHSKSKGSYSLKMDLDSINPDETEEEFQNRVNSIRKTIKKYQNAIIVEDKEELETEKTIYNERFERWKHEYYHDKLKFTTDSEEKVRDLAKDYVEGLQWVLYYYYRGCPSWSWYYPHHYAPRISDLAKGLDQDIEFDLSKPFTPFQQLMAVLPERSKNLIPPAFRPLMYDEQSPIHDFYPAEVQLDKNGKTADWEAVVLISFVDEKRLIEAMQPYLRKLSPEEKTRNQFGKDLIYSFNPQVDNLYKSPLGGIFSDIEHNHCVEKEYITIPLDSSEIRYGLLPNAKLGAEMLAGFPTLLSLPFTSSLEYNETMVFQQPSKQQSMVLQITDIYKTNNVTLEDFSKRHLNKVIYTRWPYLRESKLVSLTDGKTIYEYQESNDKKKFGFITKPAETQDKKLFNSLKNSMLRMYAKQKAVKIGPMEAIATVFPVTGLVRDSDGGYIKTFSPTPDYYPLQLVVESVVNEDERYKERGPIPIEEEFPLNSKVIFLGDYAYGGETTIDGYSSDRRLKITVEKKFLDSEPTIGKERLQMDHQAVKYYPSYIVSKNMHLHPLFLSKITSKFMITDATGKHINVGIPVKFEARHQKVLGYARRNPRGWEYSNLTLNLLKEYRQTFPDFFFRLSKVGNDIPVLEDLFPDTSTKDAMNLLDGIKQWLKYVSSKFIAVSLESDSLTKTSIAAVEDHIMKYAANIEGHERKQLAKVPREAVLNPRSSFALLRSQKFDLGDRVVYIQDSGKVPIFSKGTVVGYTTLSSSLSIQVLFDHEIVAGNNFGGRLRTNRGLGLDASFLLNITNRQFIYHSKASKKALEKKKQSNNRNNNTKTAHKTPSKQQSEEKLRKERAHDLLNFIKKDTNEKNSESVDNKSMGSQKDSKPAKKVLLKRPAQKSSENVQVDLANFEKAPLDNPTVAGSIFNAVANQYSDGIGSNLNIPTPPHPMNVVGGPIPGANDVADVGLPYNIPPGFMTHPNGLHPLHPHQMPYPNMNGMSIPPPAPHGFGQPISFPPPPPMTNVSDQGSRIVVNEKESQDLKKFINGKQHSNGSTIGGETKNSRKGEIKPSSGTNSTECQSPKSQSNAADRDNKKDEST
UniProt Q12692: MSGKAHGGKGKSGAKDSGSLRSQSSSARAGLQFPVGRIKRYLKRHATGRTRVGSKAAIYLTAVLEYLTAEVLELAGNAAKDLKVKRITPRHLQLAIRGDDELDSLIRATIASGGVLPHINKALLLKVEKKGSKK
UniProt P03069: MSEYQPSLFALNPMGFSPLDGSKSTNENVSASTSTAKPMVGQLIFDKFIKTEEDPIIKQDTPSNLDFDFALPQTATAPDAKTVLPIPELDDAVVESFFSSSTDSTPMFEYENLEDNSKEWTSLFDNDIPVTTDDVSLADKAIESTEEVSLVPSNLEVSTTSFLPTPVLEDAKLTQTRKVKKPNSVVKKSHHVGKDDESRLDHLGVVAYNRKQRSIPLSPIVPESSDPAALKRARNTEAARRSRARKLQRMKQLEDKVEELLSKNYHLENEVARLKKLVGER
UniProt P18480: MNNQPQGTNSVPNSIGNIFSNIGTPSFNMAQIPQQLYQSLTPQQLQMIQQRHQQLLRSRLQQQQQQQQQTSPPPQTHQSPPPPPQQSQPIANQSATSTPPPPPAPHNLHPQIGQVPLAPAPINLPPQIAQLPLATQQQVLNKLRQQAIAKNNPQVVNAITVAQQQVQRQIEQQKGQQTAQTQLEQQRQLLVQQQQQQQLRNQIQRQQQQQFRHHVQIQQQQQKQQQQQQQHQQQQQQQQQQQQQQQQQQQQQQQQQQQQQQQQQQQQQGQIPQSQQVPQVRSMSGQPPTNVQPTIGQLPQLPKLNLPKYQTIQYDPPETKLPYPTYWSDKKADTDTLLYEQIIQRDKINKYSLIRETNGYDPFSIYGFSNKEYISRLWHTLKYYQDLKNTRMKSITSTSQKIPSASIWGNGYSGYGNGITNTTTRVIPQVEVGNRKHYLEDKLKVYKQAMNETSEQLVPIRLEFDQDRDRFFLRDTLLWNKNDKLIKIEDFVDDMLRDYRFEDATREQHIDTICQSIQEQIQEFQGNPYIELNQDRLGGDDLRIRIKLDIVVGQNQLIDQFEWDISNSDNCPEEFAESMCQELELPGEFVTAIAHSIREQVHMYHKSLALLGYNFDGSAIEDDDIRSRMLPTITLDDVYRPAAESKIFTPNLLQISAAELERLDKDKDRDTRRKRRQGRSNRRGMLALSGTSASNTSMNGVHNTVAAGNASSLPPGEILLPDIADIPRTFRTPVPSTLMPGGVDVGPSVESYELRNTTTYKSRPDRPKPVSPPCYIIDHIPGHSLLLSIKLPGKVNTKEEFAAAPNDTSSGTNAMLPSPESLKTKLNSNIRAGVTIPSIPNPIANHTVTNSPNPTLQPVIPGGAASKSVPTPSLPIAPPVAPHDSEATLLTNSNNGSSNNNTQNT
UniProt P47035: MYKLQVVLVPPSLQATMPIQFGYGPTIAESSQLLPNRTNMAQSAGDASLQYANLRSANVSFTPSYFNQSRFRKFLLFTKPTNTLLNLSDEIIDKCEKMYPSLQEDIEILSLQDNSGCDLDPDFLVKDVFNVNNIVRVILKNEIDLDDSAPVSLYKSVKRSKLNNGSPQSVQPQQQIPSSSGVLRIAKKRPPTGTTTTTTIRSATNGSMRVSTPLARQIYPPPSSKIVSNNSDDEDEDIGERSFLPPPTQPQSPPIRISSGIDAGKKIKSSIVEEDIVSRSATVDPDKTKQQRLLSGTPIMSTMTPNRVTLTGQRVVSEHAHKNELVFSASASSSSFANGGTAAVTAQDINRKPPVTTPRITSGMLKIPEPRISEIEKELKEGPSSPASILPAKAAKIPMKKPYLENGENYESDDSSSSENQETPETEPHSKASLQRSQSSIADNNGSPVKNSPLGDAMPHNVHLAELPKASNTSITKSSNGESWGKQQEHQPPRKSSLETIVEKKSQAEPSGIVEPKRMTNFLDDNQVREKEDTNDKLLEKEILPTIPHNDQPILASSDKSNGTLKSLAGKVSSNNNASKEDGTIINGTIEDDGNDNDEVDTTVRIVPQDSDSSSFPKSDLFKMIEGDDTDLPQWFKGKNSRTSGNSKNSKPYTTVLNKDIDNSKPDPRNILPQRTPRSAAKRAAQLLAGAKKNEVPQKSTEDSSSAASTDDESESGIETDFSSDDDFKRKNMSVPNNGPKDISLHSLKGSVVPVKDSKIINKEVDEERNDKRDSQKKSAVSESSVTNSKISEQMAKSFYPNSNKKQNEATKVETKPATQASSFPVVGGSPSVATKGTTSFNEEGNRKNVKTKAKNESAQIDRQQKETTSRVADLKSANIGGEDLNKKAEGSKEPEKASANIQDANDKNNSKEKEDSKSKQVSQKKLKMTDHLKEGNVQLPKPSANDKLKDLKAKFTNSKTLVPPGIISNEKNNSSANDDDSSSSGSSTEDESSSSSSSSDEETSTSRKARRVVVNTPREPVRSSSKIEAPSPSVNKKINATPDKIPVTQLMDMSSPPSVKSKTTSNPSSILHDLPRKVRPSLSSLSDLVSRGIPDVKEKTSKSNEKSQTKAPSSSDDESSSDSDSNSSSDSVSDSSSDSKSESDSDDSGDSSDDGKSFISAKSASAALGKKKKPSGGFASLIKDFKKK

B1: Dbp7 (protein, UniProt P36120 1-742)
chain: MSDEDSMLLNFTTNEDTAGSSYKQAAKVTGGRWKDRRRMKMKLEGKTVSRKRKANTTGDEGIIPGRGENSIKKLHKESSYSSEEQEKYKGRNAHNTQGRTLPADSQFVSSLFTSNREITTAVNTNIHDENVAINPSNAPLKGDQFASLGVSSLLVSHLEQKMRIKKPTSIQKQAIPQIIGNAGKNDFFIHAQTGSGKTLSYLLPIISTILNMDTHVDRTSGAFALVIAPTRELASQIYHVCSTLVSCCHYLVPCLLIGGERKKSEKARLRKGCNFIIGTPGRVLDHLQNTKVIKEQLSQSLRYIVLDEGDKLMELGFDETISEIIKIVHDIPINSEKFPKLPHKLVHMLCSATLTDGVNRLRNVALKDYKLISNGTKKDSDIVTVAPDQLLQRITIVPPKLRLVTLAATLNNITKDFIASGQQSKTLRTIVFVSCSDSVEFHYDAFSGSDGHHKNLTGDSVRLLTKGNTMFPCFSDSRDPDVVIYKLHGSLSQQMRTSTLQHFARDNEATKGKHLIMFCTDVASRGLDLPHVGSVIELDPPFAVEDHLHRVGRTARAGEKGESLLFLLPGEEEKYMDYIQPYHPMGWELLKFDKEILMPAFKDVNVNRNDKFIRKDEKSSKNKDVGDKEYEWDTNATTWHLNIERRVVGDSAFKNLAVKGFISHVRAYATHISQEKKFFNVKFLHLGHLAKSFGLRERPKAMGLQSSKDGNSEKKPTKENSKNKMFRMARMAEKQIASEFNY
B2: Dbp10 (protein, UniProt Q12389 1-995)
chain: MAGVQKRKRDLEDQDDNGSEEDDIAFDIANEIALNDSESDANDSDSEVEADYGPNDVQDVIEYSSDEEEGVNNKKKAENKDIKKKKNSKKEIAAFPMLEMSDDENNASGKTQTGDDEDDVNEYFSTNNLEKTKHKKGSFPSFGLSKIVLNNIKRKGFRQPTPIQRKTIPLILQSRDIVGMARTGSGKTAAFILPMVEKLKSHSGKIGARAVILSPSRELAMQTFNVFKDFARGTELRSVLLTGGDSLEEQFGMMMTNPDVIIATPGRFLHLKVEMNLDLKSVEYVVFDEADRLFEMGFQEQLNELLASLPTTRQTLLFSATLPNSLVDFVKAGLVNPVLVRLDAETKVSENLEMLFLSSKNADREANLLYILQEIIKIPLATSEQLQKLQNSNNEADSDSDDENDRQKKRRNFKKEKFRKQKMPAANELPSEKATILFVPTRHHVEYISQLLRDCGYLISYIYGTLDQHARKRQLYNFRAGLTSILVVTDVAARGVDIPMLANVINYTLPGSSKIFVHRVGRTARAGNKGWAYSIVAENELPYLLDLELFLGKKILLTPMYDSLVDVMKKRWIDEGKPEYQFQPPKLSYTKRLVLGSCPRLDVEGLGDLYKNLMSSNFDLQLAKKTAMKAEKLYYRTRTSASPESLKRSKEIISSGWDAQNAFFGKNEEKEKLDFLAKLQNRRNKETVFEFTRNPDDEMAVFMKRRRKQLAPIQRKATERRELLEKERMAGLSHSIEDEILKGDDGETGYTVSEDALKEFEDADQLLEAQENENKKKKKPKSFKDPTFFLSHYAPAGDIQDKQLQITNGFANDAAQAAYDLNSDDKVQVHKQTATVKWDKKRKKYVNTQGIDNKKYIIGESGQKIAASFRSGRFDDWSKARNLKPLKVGSRETSIPSNLLEDPSQGPAANGRTVRGKFKHKQMKAPKMPDKHRDNYYSQKKKVEKALQSGISVKGYNNAPGLRSELKSTEQIRKDRIIAEKKRAKNARPSKKRKF
B3: Drs1 (protein, UniProt P32892 1-752)
chain: MVVGTKKYSNLDFVPTISDSEDDVPILDSSDDEKVEAKKTTKKRKGKNNKKKVSEGDNLDEDVHEDLDAGFKFDLDADDTTSNFQGWNFLAEGESNKDDAEAFVKKDVDLDKIIRRKGGLVKMAHIDSKQEEETEKEKVEKENDSDDEELAMDGFGMGAPMNNGDENQSEEEEEEEEKEEEEEEEEEQEEMTLEKGGKDDEIDEEDDSEEAKADFYAPETEGDEAKKQMYENFNSLSLSRPVLKGLASLGYVKPSPIQSATIPIALLGKDIIAGAVTGSGKTAAFMIPIIERLLYKPAKIASTRVIVLLPTRELAIQVADVGKQIARFVSGITFGLAVGGLNLRQQEQMLKSRPDIVIATPGRFIDHIRNSASFNVDSVEILVMDEADRMLEEGFQDELNEIMGLLPSNRQNLLFSATMNSKIKSLVSLSLKKPVRIMIDPPKKAATKLTQEFVRIRKRDHLKPALLFNLIRKLDPTGQKRIVVFVARKETAHRLRIIMGLLGMSVGELHGSLTQEQRLDSVNKFKNLEVPVLICTDLASRGLDIPKIEVVINYDMPKSYEIYLHRVGRTARAGREGRSVTFVGESSQDRSIVRAAIKSVEENKSLTQGKALGRNVDWVQIEETNKLVESMNDTIEDILVEEKEEKEILRAEMQLRKGENMLKHKKEIQARPRRTWFQSESDKKNSKVLGALSRNKKVTNSKKRKREEAKADGNGARSYRKTKTDRIADQERTFKKQKSTNSNKKKGFKSRR
B4: Enp1 (protein, UniProt P38333 1-483)
chain: MARASSTKARKQRHDPLLKDLDAAQGTLKKINKKKLAQNDAANHDAANEEDGYIDSKASRKILQLAKEQQDEIEGEELAESERNKQFEARFTTMSYDDEDEDEDEDEEAFGEDISDFEPEGDYKEEEEIVEIDEEDAAMFEQYFKKSDDFNSLSGSYNLADKIMASIREKESQVEDMQDDEPLANEQNTSRGNISSGLKSGEGVALPEKVIKAYTTVGSILKTWTHGKLPKLFKVIPSLRNWQDVIYVTNPEEWSPHVVYEATKLFVSNLTAKESQKFINLILLERFRDNIETSEDHSLNYHIYRAVKKSLYKPSAFFKGFLFPLVETGCNVREATIAGSVLAKVSVPALHSSAALSYLLRLPFSPPTTVFIKILLDKKYALPYQTVDDCVYYFMRFRILDDGSNGEDATRVLPVIWHKAFLTFAQRYKNDITQDQRDFLLETVRQRGHKDIGPEIRRELLAGASREFVDPQEANDDLMIDVN
B5: Mak5 (protein, UniProt P38112 1-773)
chain: MGKKRAPQKGKTVTKPQEIIVDESKLNWKPVDIPDTLDDFGGFYGLEEIDGVDVKVVDGKVTFVTKKDSKVLKDSNKEKVGDDQESVENESGSDSESELLEFKNLDDIKEGELSAASYSSSDEDEQGNIESSKLTDPSEDVDEDVDEDVLKENVFNKDINIDDISPVNLPEWTNLAPLSMTILQSLQNLNFLRPTEIQKKSIPVIMQGVDVMGKASTGSGKTLAYGIPIVEKLISNFSQKNKKPISLIFTPTRELAHQVTDHLKKICEPVLAKSQYSILSLTGGLSIQKQQRLLKYDNSGQIVIATPGRFLELLEKDNTLIKRFSKVNTLILDEADRLLQDGHFDEFEKIIKHLLVERRKNRENSEGSSKIWQTLIFSATFSIDLFDKLSSSRQVKDRRFKNNEDELNAVIQHLMSKIHFNSKPVIIDTNPESKVSSQIKESLIECPPLERDLYCYYFLTMFPGTTLIFCNAIDSVKKLTVYLNNLGIPAFQIHSSMTQKNRLKSLERFKQQSAKQKTINHSNPDSVQLSTVLIASDVAARGLDIPGVQHVIHYHLPRSTDIYIHRSGRTARAGSEGVSAMICSPQESMGPLRKLRKTLATKNSVSTDLNSRSTNRKPIKWQNTVPLLPIETDILSQLRERSRLAGELADHEIASNSLRKDDNWLKKAADELGIDVDSDEDDISKSNSDTFLLKNKNKKMQKTINKDKVKAMRATLNELLSVPIRKDRRQKYLTGGLVNLADNLVKKRGHNSIIGHEKTNALETLKKKKKRNN

Biological target: Med17-HA (S. cerevisiae (endogenous in S288c)) (UniProt P32569)
Assay: affinity purification with mass spectrometry; CoIP of Med17-HA on anti-HA magnetic beads from cryoground yeast lysate, 2 h at 4 °C; 20 mM HEPES pH 7.5, 300 mM KOAc, 10% glycerol, 0.01% NP-40, 6 mM MnSO4, 1 mM DTT, Cyanase nuclease; parallel control CoIP from 15N-labelled wild type cells, mixing after purification (MAP); GeLC-MS/MS, three biological replicates

Molecule	binding
Tra1 (from UniProt P38811 1-3744)	binds
Rsc6 (from UniProt P25632 1-483)	binds
Pabp (from UniProt P04147 1-577)	binds
Brr2 (from UniProt P32639 1-2163)	binds
Spt7 (from UniProt P35177 1-1332)	binds
H2B2 (from UniProt P02294 1-131)	binds
Snf6 (from UniProt P18888 1-332)	binds
Msn4 (from UniProt P33749 1-630)	binds
Rsc7 (from UniProt P32832 1-435)	binds
Xrn1 (from UniProt P22147 1-1528)	binds
Taf12 (from UniProt Q03761 1-539)	binds
Mdn1 (from UniProt Q12019 1-4910)	binds
Snf2 (from UniProt P22082 1-1703)	binds
Gcn5 (from UniProt Q03330 1-439)	binds
Ima1 (from UniProt Q02821 1-542)	binds
Chd1 (from UniProt P32657 1-1468)	no binding
Rrn5 (from UniProt Q02983 1-363)	binds
Imb1 (from UniProt Q06142 1-861)	binds
Arp9 (from UniProt Q05123 1-467)	binds
Rsc4 (from UniProt Q02206 1-625)	binds
Imdh2 (from UniProt P38697 1-523)	binds
Snf12 (from UniProt P53628 1-566)	binds
Swi3 (from UniProt P32591 1-825)	binds
Ino80 (from UniProt P53115 1-1489)	binds
Yc21b (from UniProt P25384 1-1770)	binds

Molecule	binding
H2AZ (from UniProt Q12692 1-134)	binds
Rsc3 (from UniProt Q06639 1-885)	binds
Pob3 (from UniProt Q04636 1-552)	binds
Hsf1 (from UniProt P10961 1-833)	binds
H2A1 (from UniProt P04911 1-132)	binds
Arp7 (from UniProt Q12406 1-477)	binds
Skn7 (from UniProt P38889 1-622)	binds
Sir2 (from UniProt P06700 1-562)	binds
Spt16 (from UniProt P32558 1-1035)	binds
Imdh3 (from UniProt P50095 1-523)	binds
Gcn4 (from UniProt P03069 1-281)	binds
Isw1 (from UniProt P38144 1-1129)	binds
Snf5 (from UniProt P18480 1-905)	binds
Crz1 (from UniProt P53968 1-678)	binds
Imdh4 (from UniProt P50094 1-524)	binds
Yo11b (from UniProt Q12273 1-1755)	binds
Imdh1 (from UniProt P39567 1-403)	binds
Sth1 (from UniProt P32597 1-1359)	binds
Taf14 (from UniProt P35189 1-244)	binds
Net1 (from UniProt P47035 1-1189)	binds
B1	binds
B2	binds
B3	binds
B4	binds
B5	binds
